Reference: PubChem BioAssay AID2685 (National Center for Advancing Translational Sciences (NCATS), 2010)
The list shows a part of the results. Further columns of the screen follow, without active or inactive calls. Most of these compounds were active or inconclusive in the main read-out, so they are no random draw. Words in brackets tell the shape of the fitted curve; partial curves, single points and poor fits give uncertain potencies.

Assay: qHTS Assay for Lipid Storage Modulators in Drosophila S3 Cells;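 on cell number change: cells counted by Cell Tracker Red CMTPX staining in the red channel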
Conditions: BODIPY lipid droplet fluorescence, 18-24 h; for cell number change: measured here: cell count max response, cells fed with added oleic acid
Summary of the method: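 Laser-scanning cytometry quantifies lipid droplet accumulation (500–530 nm total intensity; droplet/cell object ratio) in oleic acid-fed (400 uM added) Drosophila S3 cells treated with a concentration series. 20 uM Triacsin C defined 100% inhibition.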

[1] = measured here: lipid fluorescence (Fed channel) AC50, cells fed with added oleic acid
[2] = measured here: cell number channel AC50, cells fed with added oleic acid

Compound	cell number change [%]	AC50 [1]	AC50 [2]
O=S(=O)(NCCc1ccncc1)c1ccccc1	11.3	6.51 µM [rising, single point]	
CC(C(=O)NC(=O)NC1CCCCC1)N1CCN(c2ccccn2)CC1 (stereo not given)	-10.9	2.91 µM [falling, full curve, poor fit]	
COCCN1Cc2cccc(C(=O)Nc3ccc(C)c(C)c3)c2C1=O	3.28		
CC(C)C(=O)Nc1ccc(C(=O)N2CCN(C(=O)c3ccco3)CC2)cc1		6.51 µM [falling, partial curve]	
Cc1ccc(S(=O)(=O)N(c2nc(N(C)C)nc(N(C)C)n2)n2cnnc2)cc1	0.234	9.2 µM [rising, partial curve]	
CCc1cc(C(=O)NCC(c2cccs2)N2CCOCC2)sc1C (stereo not given)	32.9	9.2 µM [rising, partial curve, poor fit]	11.6 µM [rising, partial curve, poor fit]
COc1ccc(S(=O)(=O)N2CCC(C(=O)N[C@H](C(=O)NC3CCCC3)C(C)C)CC2)cc1		6.51 µM [falling, single point]	7.31 µM [falling, single point]
COc1ccc(OC)c(NC(=O)COC(=O)CSc2ccc(Cl)cc2)c1	-9.95	1.03 µM [falling, partial curve]	
C=CCNC(=O)COC(=O)c1cc(S(=O)(=O)N2CCCCC2)ccc1Cl	53.9	0.116 µM [rising, full curve]	1.3 µM [rising, full curve, poor fit]
CC1CCc2sc3nc(N4CCN(CCO)CC4)n4ncnc4c3c2C1 (stereo not given)	-19.5		
C=C[C@@](C)(O)CC[C@@H]1[C@@]2(C)CCCC(C)(C)[C@@H]2CC[C@@]1(C)O	-27.3	16.4 µM [falling, single point]	
CCS(=O)(=O)N1CCN(Cc2ccc([N+](=O)[O-])cc2)CC1	13.7		
CN(c1ccc(OC(=O)CC2OC(=O)c3ccccc32)cc1)S(=O)(=O)c1ccccc1 (stereo not given)	-20.3	14.6 µM [rising, partial curve]	
Cn1c(Cn2nnc(-c3ccccc3)n2)nnc1SCc1ccccc1Cl	14.3		8.2 µM [rising, partial curve, poor fit]
CC(=O)N(C)c1ccc(NC(=O)c2cnn(C)c2)cc1	-67		25.9 µM [falling, partial curve, poor fit]
Cc1ccc(C(=O)NC(=S)Nc2cccc(NC(=O)c3ccccc3)c2)cc1[N+](=O)[O-]	-41.1	23.1 µM [falling, single point]	29.1 µM [falling, single point]
COc1ccc(NS(=O)(=O)c2cc(NC(=O)c3ccc(=O)[nH]c3)ccc2N2CCCC2)cc1	-15.6	29.1 µM [falling, partial curve, poor fit]	
Cc1ccc(CNC(=O)CCCc2ccccc2)cc1	38.9		18.4 µM [rising, partial curve]
COc1ccc(C)cc1NC(=O)CN(C)S(=O)(=O)c1cc(C)ccc1OC	45.4	13 µM [rising, partial curve, poor fit]	2.31 µM [rising, partial curve]
CCOC(=O)c1sc(NC(=O)CSc2nnc(Cc3ccccc3)o2)c(C#N)c1C		2.91 µM [rising, partial curve]	2.31 µM [rising, partial curve]

Compound	cell number change [%]	AC50 [1]	AC50 [2]
COc1ccc(NC(=O)C(=O)c2cn(CC(=O)N3CCCC3)c3ccccc23)cc1OC	-7.89		6.51 µM [falling, single point]
CC(C)Cc1ccc(C(C)C(=O)Nc2ccccc2O)cc1 (stereo not given)	-37.5	0.00461 µM [falling, full curve, poor fit]	0.0731 µM [falling, full curve]
O=C(CSc1ccc(Cl)cc1)Nc1ccc(N2CCN(C(=O)c3ccc(Cl)cc3)CC2)cc1	-13.5		0.731 µM [falling, single point]
COc1ccc(S(=O)(=O)n2ccc(C(C)Oc3ccc(-c4ccccc4)c(F)c3)n2)cc1 (stereo not given)	89.7	29.1 µM [rising, single point]	29.1 µM [rising, single point]
C[C@@H](NC(=O)CN1C(=O)c2ccccc2S1(=O)=O)c1ccccc1	5.73	29.1 µM [falling, single point]	
CC(C)CC(=O)Nc1ccc(-c2nc3ccccc3c(=O)o2)cc1	-9.55		
CC1CC(=O)N(CC(=O)Nc2ccc(F)cc2)c2ccccc2S1(=O)=O (stereo not given)	-9.54	29.1 µM [falling, single point]	
Cc1ccc(C(=O)Nc2cccc(-c3ccc(N4CCOCC4)nn3)c2)cc1C		0.731 µM [rising, partial curve]	
O=C(COC(=O)c1cc[n+]([O-])cc1)Nc1ccc(Cl)cc1C(F)(F)F		6.51 µM [falling, single point]	
O=C(Nc1cc2c(cc1Cl)OCCCO2)c1ccco1	5.24	0.164 µM [falling, partial curve, poor fit]	
CCCCC1C(=O)N(c2ccccc2)N(c2ccc(O)cc2)C1=O (stereo not given)	-75.9	29.1 µM [falling, single point]	29.1 µM [falling, partial curve, poor fit]
O=C1Nc2ccccc2C12OC1CCCCC1O2 (stereo not given)	-1.75	1.16 µM [rising, single point]	
Cc1nc(NC(=O)c2ccco2)sc1-c1csc(Nc2ccc(Cl)cc2)n1	-25.9	25.9 µM [falling, single point]	
CCN(CC)CCCN1C(=O)C(=O)/C(=C(/O)c2ccc3c(c2)CC(C)O3)C1c1ccncc1 (stereo not given)	-0.406	5.8 µM [falling, full curve]	
Cc1ccc(C)c(S(=O)(=O)N2CCN(CC(=O)NC(C)c3ccccc3)CC2)c1 (stereo not given)	-5.36	29.1 µM [falling, single point]	
CCc1ccc(S(=O)(=O)NCCc2cn3ccc(C)cc3n2)s1			0.651 µM [rising, full curve, poor fit]
CC(CNC(=O)COC(=O)c1ccco1)c1ccccc1 (stereo not given)	-8.77	16.4 µM [falling, single point]	
COCCNC(=S)N/N=C(\C)c1ccc(-n2ccnc2)cc1	-1.97	25.9 µM [rising, partial curve]	1.3 µM [rising, single point]
O=C(COC(=O)c1ccc2[nH]c3c(c2c1)CCCC3)Nc1ccccc1	-35.3		29.1 µM [falling, single point]
CC(=O)Nc1cccc(C(=O)/C=C/c2ccc(N(C)C)cc2)c1	98.9	16.4 µM [rising, single point]	20.6 µM [rising, partial curve]

Compound	cell number change [%]	AC50 [1]	AC50 [2]
CC1(C)C(=O)Nc2ccccc2N1C(=O)CSc1nnc2ccccn12	-51.9		
CCc1nnc(NC(=O)C(NS(=O)(=O)c2ccc3c(c2)OCCO3)C(C)C)s1 (stereo not given)	-17.5		0.103 µM [falling, full curve, poor fit]
N#Cc1ccc(Oc2ccc(/C=N/O)cn2)cc1	-14.2	1.16 µM [falling, full curve]	
O=C(OCc1ccc(COC(=O)c2cccnc2Cl)cc1)c1cccnc1Cl		0.291 µM [falling, single point]	
COc1ccc(CN(C2CCCC2)S(=O)(=O)c2ccc(-n3cnnn3)cc2)cc1	-16.7	0.00461 µM [rising, full curve, poor fit]	
CCSc1nnc(NC(=O)CSc2nnc(CNC(=O)c3ccccc3F)o2)s1	7.44		
O=C(c1cc2ccccc2o1)N1CCN(CCOc2ccccc2)CC1		0.0058 µM [falling, full curve, poor fit]	
CC(=O)c1c(OCC(=O)O)ccc2c(C)cc(=O)oc12	-7.37	0.184 µM [falling, full curve, poor fit]	0.82 µM [falling, partial curve, poor fit]
OCc1cn(Cc2ccc(O)c3ncccc23)cn1	20.8	18.4 µM [rising, single point]	
COc1ccc(NC(=O)C2CCC(=O)N2S(=O)(=O)c2ccc(C)cc2)c(OC)c1 (stereo not given)		2.06 µM [falling, partial curve, poor fit]	6.51 µM [falling, single point]
CCCOc1cccc(C2/C(=C(/O)c3ccc(F)cc3)C(=O)C(=O)N2CCN(C)C)c1 (stereo not given)	-0.816		
Cc1ccc(NC(=O)c2ccccc2N(C)S(C)(=O)=O)cc1C			2.59 µM [rising, single point]
CC(C)(CNC(=O)c1cc(Cl)c(O)c(Cl)c1)N1CCCCC1	10.5		
CCCCN(C(=O)c1cccc(S(=O)(=O)N2CCN(C)CC2)c1)c1c(N)n(CCC)c(=O)[nH]c1=O	-4.5		
N#C/C(=N\Nc1ccc(S(=O)(=O)N2CCc3ccccc32)cc1)C(N)=S	6.67		0.0206 µM [falling, partial curve, poor fit]
Cc1ccccc1OCC(=O)NNC(=O)c1ccc(-c2ccccc2)cc1		0.58 µM [rising, single point]	
Cc1ccsc1C(=O)Nc1ccc(OCc2ccccc2)cc1	16.9	4.61 µM [rising, full curve, poor fit]	
Cc1ccc2c(c1)N(CC(=O)O)C(=O)CO2	-31.9	0.00461 µM [falling, full curve, poor fit]	0.00651 µM [falling, full curve]

Quoted at random: 3 entries already listed.
Compound	cell number change [%]	AC50 [1]	AC50 [2]
N#Cc1ccc(Oc2ccc(/C=N/O)cn2)cc1	-14.2	1.16 µM [falling, full curve]	
Cc1ccccc1OCC(=O)NNC(=O)c1ccc(-c2ccccc2)cc1		0.58 µM [rising, single point]	
CC(C)(CNC(=O)c1cc(Cl)c(O)c(Cl)c1)N1CCCCC1	10.5		
